Some entries share one result that the patent states for a list of compounds.
What was measured:
[1] = tested on: green peach aphid (Myzus persicae); assay: Example 3: Myzus test (MYZUPE spray treatment); format: in vivo
[2] = tested on: greenhouse red spider mite (Tetranychus urticae); assay: Example 4: Tetranychus test, OP-resistent (TETRUR spray treatment); format: in vivo; details: after 6 d
[3] = tested on: larvae of the mustard beetle (Phaedon cochleariae); assay: Example 1: Phaedon test (PHAECO spray treatment); details: after 7 d
[4] = tested on: caterpillars of the army worm (Spodoptera frugiperda); assay: Example 2: Spodoptera frugiperda test (SPODFR spray treatment); format: in vivo; details: application rate 500 g/ha, after 7 d
[5] = application rate 500 g/ha, after 6 d
[6] = application rate 100 g/ha, after 5 d

| SMILES | efficacy (effect in %, aphids killed) [1, 5] [%] | efficacy (effect in %, spider mites killed) ([2]; application rate 100 g/ha) [%] | efficacy (effect in %, beetle larvae killed) ([3]; application rate 500 g/ha) [%] | efficacy (effect in %, spider mites killed) ([2]; application rate 20 g/ha) [%] | efficacy (effect in %, caterpillars killed) [4] [%] | efficacy (effect in %, beetle larvae killed) ([3]; application rate 100 g/ha) [%] | efficacy (effect in %, aphids killed) [1, 6] [%] |
| --- | --- | --- | --- | --- | --- | --- | --- |
| COC1CCC2(C1)NC(=O)C(c1cc(-c3ccc(F)cc3)ccc1C)=C2O (mixture of isomers) [Example I-1-a-56] | ≥ 80 | ≥ 80 |  |  |  |  |  |
| Cc1ccc(-c2ccc(F)c(F)c2)c(C)c1C1=C(O)C2(CCOCC2)NC1=O [Example I-1-a-5] | ≥ 80 |  | ≥ 80 | ≥ 80 | ≥ 80 |  |  |
| Cc1ccc(-c2ccc(F)cc2)cc1C1=C(O)C2(CCC3(CC2)OCCO3)NC1=O [Example I-1-a-8] | ≥ 80 | ≥ 80 |  |  | ≥ 80 |  |  |
| Cc1ccc(-c2ccc(F)cc2)c(C)c1C1=C(O)C2(CCC3(CC2)OCC(C)(C)CO3)NC1=O [Example I-1-a-9] | ≥ 80 | ≥ 80 |  |  |  |  |  |
| Cc1ccc(-c2ccc(F)cc2)c(C)c1C1=C(O)C2(CCCOC2)NC1=O (stereo not drawn) [Example I-1-a-10] | ≥ 80 | ≥ 80 | ≥ 80 |  | ≥ 80 |  |  |
| Cc1cc(-c2ccc(C)c(C3=C(O)C4(CCOCC4)NC3=O)c2C)ccc1F [Example I-1-a-15] | ≥ 80 |  |  |  |  |  |  |
| Cc1cc(-c2ccc(Cl)c(C3=C(O)C4(CCOCC4)NC3=O)c2)ccc1F [Example I-1-a-19] |  |  |  |  | ≥ 80 |  |  |
| Cc1ccc(-c2ccc(F)c(Cl)c2)c(C)c1C1=C(O)C2(CCOCC2)NC1=O [Example I-1-a-20] | ≥ 80 |  |  |  |  |  |  |
| O=C1NC2(CCOCC2)C(O)=C1c1cc(-c2ccc(F)c(F)c2)ccc1Cl [Example I-1-a-21] | ≥ 80 | ≥ 80 | ≥ 80 |  | ≥ 80 |  |  |
| Cc1cc(F)ccc1-c1ccc(Cl)c(C2=C(O)C3(CCOCC3)NC2=O)c1 [Example I-1-a-27] | ≥ 80 |  | ≥ 80 |  |  |  |  |
| Cc1ccc(-c2ccc(F)cc2F)cc1C1=C(O)C2(CCOCC2)NC1=O [Example I-1-a-29] | ≥ 80 |  | ≥ 80 |  | ≥ 80 |  |  |
| O=C1NC2(CCOCC2)C(O)=C1c1cc(-c2cc(F)c(F)c(F)c2)ccc1Cl [Example I-1-a-30] | ≥ 80 | ≥ 80 | ≥ 80 |  | ≥ 80 |  |  |
| Cc1ccc(-c2ccc(F)cc2C)cc1C1=C(O)C2(CCOCC2)NC1=O [Example I-1-a-31] | ≥ 80 |  | ≥ 80 |  |  |  |  |
| COc1cc(-c2ccc(Cl)c(C3=C(O)C4(CCOCC4)NC3=O)c2)ccc1F [Example I-1-a-32] | ≥ 80 |  | ≥ 80 |  |  |  |  |
| Cc1cc(C)c(-c2ccc(F)cc2)c(C)c1C1=C(O)C2(CCOCC2)NC1=O [Example I-1-a-33] | ≥ 80 |  | ≥ 80 |  |  |  |  |
| Cc1ccc(-c2ccc(F)cc2F)c(C)c1C1=C(O)C2(CCOCC2)NC1=O [Example I-1-a-34] | ≥ 80 | ≥ 80 | ≥ 80 |  | ≥ 80 |  |  |
| O=C1NC2(CCOCC2)C(O)=C1c1cc(-c2ccc(F)cc2F)ccc1Cl [Example I-1-a-35] | ≥ 80 | ≥ 80 | ≥ 80 |  | ≥ 80 |  |  |
| Cc1ccc(-c2cccc(F)c2)cc1C1=C(O)C2(CCOCC2)NC1=O [Example I-1-a-36] | ≥ 80 | ≥ 80 |  |  |  |  |  |
| Cc1ccc(-c2cccc(F)c2)c(C)c1C1=C(O)C2(CCOCC2)NC1=O [Example I-1-a-37] | ≥ 80 | ≥ 80 | ≥ 80 |  |  |  |  |
| Cc1ccc(-c2cc(F)cc(F)c2)cc1C1=C(O)C2(CCOCC2)NC1=O [Example I-1-a-38] | ≥ 80 | ≥ 80 | ≥ 80 |  | ≥ 80 |  |  |
| Cc1ccc(-c2cc(F)cc(F)c2)c(C)c1C1=C(O)C2(CCOCC2)NC1=O [Example I-1-a-39] | ≥ 80 | ≥ 80 | ≥ 80 |  |  |  |  |
| O=C1NC2(CCOCC2)C(O)=C1c1cc(-c2cc(F)ccc2F)ccc1Cl [Example I-1-a-40] | ≥ 80 | ≥ 80 |  |  |  |  |  |
| O=C1NC2(CCOCC2)C(O)=C1c1cc(-c2cc(F)cc(F)c2)ccc1Cl [Example I-1-a-41] | ≥ 80 | ≥ 80 | ≥ 80 |  | ≥ 80 |  |  |

| SMILES | efficacy (effect in %, aphids killed) [1, 5] [%] | efficacy (effect in %, spider mites killed) ([2]; application rate 100 g/ha) [%] | efficacy (effect in %, beetle larvae killed) ([3]; application rate 500 g/ha) [%] | efficacy (effect in %, spider mites killed) ([2]; application rate 20 g/ha) [%] | efficacy (effect in %, caterpillars killed) [4] [%] | efficacy (effect in %, beetle larvae killed) ([3]; application rate 100 g/ha) [%] | efficacy (effect in %, aphids killed) [1, 6] [%] |
| --- | --- | --- | --- | --- | --- | --- | --- |
| Cc1ccc(-c2cc(F)ccc2F)cc1C1=C(O)C2(CCOCC2)NC1=O [Example I-1-a-42] | ≥ 80 |  |  |  | ≥ 80 |  |  |
| Cc1ccc(-c2ccc(C)c(C3=C(O)C4(CCOCC4)NC3=O)c2)cc1F [Example I-1-a-43] | ≥ 80 | ≥ 80 |  |  |  |  |  |
| Cc1ccc(-c2ccc(C)c(C3=C(O)C4(CCOCC4)NC3=O)c2C)cc1F [Example I-1-a-44] | ≥ 80 |  |  |  |  |  |  |
| Cc1ccc(-c2ccc(Cl)c(C3=C(O)C4(CCOCC4)NC3=O)c2)cc1F [Example I-1-a-45] |  | ≥ 80 |  |  |  |  |  |
| COC1CCCC2(C1)NC(=O)C(c1c(C)ccc(-c3ccc(F)cc3)c1C)=C2O (stereo not drawn) [Example I-1-a-48] | ≥ 80 | ≥ 80 |  |  |  |  |  |
| COC1CCCC2(C1)NC(=O)C(c1cc(-c3ccc(F)cc3)ccc1C)=C2O (stereo not drawn) [Example I-1-a-49] | ≥ 80 | ≥ 80 |  |  |  |  |  |
| Cc1ccc(-c2ccc(F)cc2)cc1C1=C(O)C2(CCCCC2)NC1=O [Example I-1-a-52] | ≥ 80 | ≥ 80 | ≥ 80 |  | ≥ 80 |  |  |
| CC(=O)OC1=C(c2c(C)ccc(-c3ccc(F)cc3)c2C)C(=O)NC12CCOCC2 [Example I-1-b-2] | ≥ 80 | ≥ 80 |  |  | ≥ 80 |  |  |
| Cc1ccc(-c2ccc(F)cc2)c(C)c1C1=C(OC(=O)C(C)C)C2(CCOCC2)NC1=O [Example I-1-b-3] | ≥ 80 | ≥ 80 |  |  | ≥ 80 |  |  |
| CC(C)C(=O)OC1=C(c2cc(-c3ccc(F)cc3)ccc2Cl)C(=O)NC12CCOCC2 [Example I-1-b-4] | ≥ 80 | ≥ 80 |  |  | ≥ 80 |  |  |
| CC(=O)OC1=C(c2cc(-c3ccc(F)cc3)ccc2C)C(=O)NC12CCOCC2 [Example I-1-b-5] | ≥ 80 | ≥ 80 | ≥ 80 |  | ≥ 80 |  |  |
| Cc1ccc(-c2ccc(F)cc2)cc1C1=C(OC(=O)C(C)C)C2(CCOCC2)NC1=O [Example I-1-b-6] | ≥ 80 | ≥ 80 | ≥ 80 |  | ≥ 80 |  |  |
| COC(=O)OC1=C(c2c(C)ccc(-c3ccc(F)cc3)c2C)C(=O)NC12CCOCC2 [Example I-1-c-2] | ≥ 80 | ≥ 80 |  |  | ≥ 80 |  |  |
| COC(=O)OC1=C(c2cc(-c3ccc(F)cc3)ccc2Cl)C(=O)NC12CCOCC2 [Example I-1-c-3] | ≥ 80 |  | ≥ 80 |  | ≥ 80 |  |  |
| O=C1OC2(CCCC2)C(O)=C1c1cc(-c2ccc(F)c(F)c2)ccc1Cl [Example I-2-a-2] |  |  |  |  |  | ≥ 80 | ≥ 80 |
| O=C1OC2(CCCC2)C(O)=C1c1cc(-c2ccc(F)cc2F)ccc1Cl [Example I-2-a-5] |  |  |  |  |  | ≥ 80 | ≥ 80 |
| O=C1OC2(CCCC2)C(O)=C1c1cc(-c2cc(F)c(F)c(F)c2)ccc1Cl [Example I-2-a-6] |  | ≥ 80 |  |  |  | ≥ 80 |  |
| O=C1OC2(CCCC2)C(O)=C1c1cc(-c2ccc(F)cc2)ccc1Cl [Example I-2-a-7] |  |  |  |  |  | ≥ 80 | ≥ 80 |
| O=C1OC2(CCCCC2)C(O)=C1c1cc(-c2ccc(F)c(F)c2)ccc1Cl [Example I-2-a-8] | ≥ 80 |  | ≥ 80 |  | ≥ 80 |  |  |
| Cc1ccc(-c2ccc(F)cc2)cc1C1=C(O)C2(CCOCC2)OC1=O [Example I-2-a-12] | ≥ 80 |  |  |  | ≥ 80 |  |  |
| Cc1ccc(-c2ccc(F)c(F)c2)cc1C1=C(O)C2(CCOCC2)OC1=O [Example I-2-a-13] | ≥ 80 |  |  |  |  |  |  |
| Cc1ccc(-c2ccc(F)c(F)c2)c(C)c1C1=C(O)C2(CCOCC2)OC1=O [Example I-2-a-16] | ≥ 80 | ≥ 80 | ≥ 80 |  |  |  |  |
